The other results are listed elsewhere or left out.
Test system: T1, CTL2-GFP (C. trachomatis L2/434/Bu, GFP-expressing)
T1 construct: L2/434/Bu, GFP-expressing
Set-up: species or system HeLa; Intracellular C. trachomatis growth in HeLa cells, bulk GFP fluorescence relative to DMSO
Conditions: bulk GFP, single well; 28.5 h, 10 µM; inhibitor

| SMILES | % of control remaining |
| --- | --- |
| O=C(NCc1ccccn1)Nc1ccc2c(c1)OCO2 [CBK267014] | 166.949% |
| CC(C)N1CCC(CNC(=O)c2cc3ccccc3c(=O)s2)CC1 [CBK282711] | 154.383% |
| Cc1sc2ncnc(N3CCCC3Cn3cccn3)c2c1C (centres unmarked) [CBK304570] | 96.3955% |
| Cc1nc2sccn2c1CN1CCc2sccc2C1C (centres unmarked) [CBK282807] | 110.529% |
| O=C(Cc1c[nH]c2ccccc12)Nc1ccccc1N1CCNCC1 [CBK028288T] | 110.47% |
| Cc1cccc(NC(=O)[C@@H](NC(=O)c2ccccc2F)C(C)C)c1C [CBK297509] | 146.11% |
| COc1ccccc1CC(=O)N(Cc1cccnc1)C[C@@H]1CCC(=O)N1 [CBK307504] | 104.903% |
| CN1CCN(c2nc(-c3ccco3)cnc2N)CC1 [CBK063449] | 170.209% |
| COC(=O)[C@@H]1CN(C(=O)c2cccs2)C[C@H]1c1ccc(OC)cc1 [CBK283725] | 124.641% |
| Cc1ccc(CC(=O)N2CCc3nn(C(C)C)c(=O)cc3C2)cc1 [CBK284499] | 123.081% |
| Cc1ccc2[nH]c(SCC(=O)Nc3ccc(C(=O)O)cc3)nc2c1 [CBK297526] | 145.151% |
| Cn1c(CNc2ccccc2C(=O)O)c(C#N)c2ccccc21 [CBK286977] | 138.487% |
| CS(=O)(=O)N1CC2(CCN(Cc3ccccc3F)CC2)c2ccccc21 [CBK084004] | 139.37% |
| Cc1ccc2c(c1)C1(CCN(C/C=C\c3ccccc3)CC1)NC(=O)C2 [CBK040216] | 99.8988% |
| Nc1cc(=O)[nH]c(=O)n1CCc1ccccc1 [CBK269984] | 133.204% |
| COc1cccc(NC(=O)CC(CN2CCN(c3ccccc3)CC2)C(=O)O)c1 (centres unmarked) [CBK286789] | 130.901% |
| C=CCN1C(=O)C2(CC(=O)N(CC(=O)N(C)C)C2=O)c2cc(OC)ccc21 (centres unmarked) [CBK075227] | 115.8% |
| CN1CCC(N(C)C(=O)NCc2ccc(Cl)c(Cl)c2)C1 (centres unmarked) [CBK155996] | 100% |
| CC(C)N1CCC(N(C)Cc2nc3ccccc3[nH]2)CC1 [CBK283021] | 122.14% |
| COc1ccc2[nH]c3c(c2c1)CCN(CCc1ccc(F)cc1)C3 [CBK082819T] | 143.143% |
| Cc1nc2ccc(NC(=O)N3CCC(c4ccccc4)C3)cc2s1 (centres unmarked) [CBK266512] | 150.527% |
| Cc1nccn1CCCn1cncc1-c1ccc2c(c1)CCC(C)N2C (centres unmarked) [CBK281811] | 131.373% |
| Oc1cccnc1SCc1nc2ccccc2s1 [CBK016367] | 92.7756% |
| COc1ccc2[nH]c3c(c2c1)CCOC31CCN(CCC(F)=C(F)F)CC1 [CBK040118] | 71.603% |
| Cn1c(CN2CCN(C(=O)Nc3ccccc3)CC2)nc2cc([N+](=O)[O-])ccc21 [CBK268260] | 108.893% |
| Oc1cc(C(F)(F)F)nc(CCc2ccc(Cl)cc2)n1 [CBK003678] | 86.1131% |
| COc1cc(-c2cc(Nc3ccc(N(C)C)cc3)ncn2)cc(OC)c1OC [CBK090945] | 91.1444% |

| SMILES | % of control remaining |
| --- | --- |
| O=C(N/N=C/c1ccccc1O)c1ccn(Cc2ccc(Cl)cc2)n1 [CBK262770] | 91.0017% |
| O=C(N[C@H]1C2CCCCC2[C@@H]1c1ccccc1)c1cncnc1 (some centres unmarked) [CBK282949] | 134.543% |
| OCCCNCC(O)CN1c2ccccc2Sc2ccccc21 (centres unmarked) [CBK027632G] | 108.689% |
| Cc1cc(S(=O)(=O)N2CCCC2)ccc1OCC(=O)NCc1ccncc1 [CBK269886] | 123.335% |
| Cc1ccnc(N2C(=O)c3ccc(C(=O)c4ccc5c(c4)C(=O)N(c4cc(C)ccn4)C5=O)cc3C2=O)c1 [CBK263041] | 101.151% |
| O=S(=O)(Nc1cccc2[nH]ccc12)c1ccc(Br)cc1F [CBK153547] | 109.234% |
| O=C1CC(SCc2nc3ccccc3[nH]2)C(=O)N1c1cccc(Cl)c1 (centres unmarked) [CBK266731] | 180.162% |
| COc1ccc(-c2cc(=O)[nH]c(N3CCN(C)CC3)n2)cc1 [CBK003849] | 76.2505% |
| COc1ccc(CCNC(=O)CCn2cncn2)cc1 [CBK305881] | 110.168% |
| O=C(O)/C=C/c1cccc(/C=C/C(=O)O)c1 [CBK261650] | 100% |
| COc1cc(-c2cncc(Nc3cccc(C(F)(F)F)c3)n2)cc(OC)c1OC [CBK065213] | 107.426% |
| O=[N+]([O-])c1ccc(Oc2ccccc2F)cc1 [CBK002532] | 117.491% |
| CC(=O)NC(CC(=O)N1CCc2sccc2C1C)c1ccc(C)cc1 (centres unmarked) [CBK305378] | 121.428% |
| COCCn1cc(C(=O)N2CCCC2c2ccncc2)c2ccccc21 (centres unmarked) [CBK305286] | 102.28% |
| O[C@H]1[C@H](NCc2ccco2)[C@H]2CO[C@H](O2)[C@@H]1N1CCCCC1 [CBK288825] | 122.461% |
| O=C(NC(=S)Nc1ccc(-c2nc3ncccc3o2)cc1)c1ccc2c(c1)OCCO2 [CBK265812] | 142.622% |
| O=C(C1CC2C=CC1C21CC1)N1CCC(Oc2ccccc2F)CC1 (centres unmarked) [CBK282179] | 119.068% |
| O=C(c1ccccc1NS(=O)(=O)c1ccc(C(F)(F)F)cc1[N+](=O)[O-])N1CCOCC1 [CBK043353] | 116.868% |
| CCOC(=O)CCCNC(=O)N1CCN(c2ccccc2)CC1 [CBK155209] | 123.472% |
| Cc1ccc(C(CC(=O)O)NC(=O)c2ccc(S(=O)(=O)N3CCCC(C)C3)cc2)cc1 (centres unmarked) [CBK295345] | 137.504% |
| Cc1noc(C)c1NC(=O)Cc1cccnc1 [CBK200391] | 95.5556% |
| Cc1c(S(=O)(=O)Nc2cccc(C(=O)OCC3CCCN(C)C3)c2)sc2ccc(Cl)cc12 (centres unmarked) [CBK167735G] | 133.26% |
| CN(C)c1ccc(CCNS(=O)(=O)c2ccc3[nH]c(=O)[nH]c(=O)c3c2)cc1 [CBK285938] | 114.433% |
| Cc1cc2c(cc3c(=O)n(CC(=O)N4CCCCCC4)nc(C)n32)o1 [CBK283591] | 127.831% |
| Cc1ccc(N2CC(c3nnc(N)o3)CC2=O)cc1 (centres unmarked) [CBK288061] | 131.761% |
| CC(C)(C)c1cn2c3ccccc3nc2n1CCN1CCOCC1 [CBK278252C] | 107.22% |
| COc1cccc(CN2CCN(C(=O)c3ccco3)[C@@H](C)C2)c1 [CBK284267] | 108.492% |

| SMILES | % of control remaining |
| --- | --- |
| CC(C)(C)C(=O)N1CCC(n2nc(-c3cccs3)ccc2=O)CC1 [CBK284182] | 160.344% |
| CCN(CC)C(=O)CN1CCC(Oc2cncc(OCc3ccc(Cl)c(Cl)c3)n2)C1 (centres unmarked) [CBK084431] | 90.8843% |
| CCN(Cc1cccc(C(=O)O)c1)Cc1noc(C2CCC2)n1 [CBK307708] | 157.06% |
| CCc1c(O)c2ccccc2n(Cc2ccccc2)c1=O [CBK219367] | 110.135% |
| CCCC(=O)Nc1ccc(OCc2ncc(C(C)C)o2)c(C(C)=O)c1 [CBK305516] | 119.273% |
| COc1ccc(-n2cc(-c3ccccc3C(F)(F)F)nn2)cc1OC [CBK112965] | 111.413% |
| Cc1ccccc1OCC(=O)NN1CCN(C)CC1 [CBK265783C] | 119.398% |
| COc1ccc2c(c1)C1(Nc3ccccc3C(=O)N1c1ccccc1)C(=O)N2 (centres unmarked) [CBK103747] | 78.3721% |
| O=C(O)c1c(Cl)c(C(=O)O)c(C(=O)O)c(Cl)c1C(=O)O [CBK261177] | 105.205% |
| S=c1n(CN2CCC3(CC2)OCCO3)nc(-c2ccccc2Cl)n1-c1ccccc1 [CBK265222] | 97.1511% |
| CCCNC(=O)NCCc1cccs1 [CBK043675] | 168.478% |
| CC(=O)NC(=S)Nc1ccc(Oc2ccccc2)cc1 [CBK288454] | 120.103% |
| COc1ccccc1N1CCN(C(=O)c2ccccc2C(=O)c2ccccc2)CC1 [CBK091506] | 111.643% |
| COc1ccccc1CC(=O)N1CCCC1c1nc2ccccc2[nH]1 (centres unmarked) [CBK285517] | 111.459% |
| O=C(Nc1ccc2nsnc2c1NC(=O)c1ccc2nsnc2c1)c1ccc2nsnc2c1 [CBK264309] | 127.762% |
| CC1=C(C)C(=NNC(N)=S)C(C)=C(C)C1=NNC(N)=S [CBK261262] | 17.1685% |
| CN(C)CCNc1c2c(nc3ccccc13)CCC2 [CBK263732C] | 112.272% |
| CNC(=O)c1ccc(NC(=O)N2CCCCC2c2ccnn2C)cc1 (centres unmarked) [CBK305521] | 102.699% |
| O=c1c(N2CCN(CCOc3ccccc3)CC2)nccn1CCOc1cc(F)c(F)cc1F [CBK045934C] | 128.49% |
| Cc1ccccc1C(NC(=O)C1CCN(C(=O)NCCc2ccccc2)CC1)c1ncccc1C (centres unmarked) [CBK060409] | 111.286% |
| Oc1cccc2ccc(-n3ccnc3)nc12 [CBK017812] | 173.918% |
| Cn1cc(C2CCCCCN2C(=O)c2nn(C)cc2Cl)cn1 (centres unmarked) [CBK284972] | 127.186% |
| O=C(CSc1nc(N2CCOCC2)nc(N2CCOCC2)n1)c1ccc([N+](=O)[O-])cc1 [CBK269107] | 119.757% |
| COc1ccc(O)c(-c2c(-c3ccc(C)cc3)n[nH]c2C)c1 [CBK287961] | 123.11% |
| CCNc1cncc(-c2ccccc2)n1 [CBK065847] | 162.387% |
| O=C(/C=C/C=C/c1ccccc1)CC1(O)C(=O)N(Cc2cccc3ccccc23)c2ccccc21 (centres unmarked) [CBK264744] | 117.671% |

Taken from above:
% of control remaining with COc1ccccc1N1CCN(C(=O)c2ccccc2C(=O)c2ccccc2)CC1 [CBK091506] reads 111.643%
% of control remaining with CNC(=O)c1ccc(NC(=O)N2CCCCC2c2ccnn2C)cc1 (centres unmarked) [CBK305521] reads 102.699%
% of control remaining with CC(C)(C)C(=O)N1CCC(n2nc(-c3cccs3)ccc2=O)CC1 [CBK284182] reads 160.344%

— paper PMC12040169 (PLOS Biology, 2025)
